PubChem BioAssay AID1508588 | Peter MacCallum Cancer Centre – 2020
The deposit covers about 18,000 reagents; this is an unselected part. 790 of all reagents (4.4%) count as active. 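Calls rest on a combination of fold-change classes in drug and vehicle arms, not all shown here.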

Aim: 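Knock-downs boosting vemurafenib effects on melanoma cell growth or lactate release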 (primary screen)
Cells: human WM266.4 melanoma cells (BRAF V600 mutant)
Knock-down reagent: siRNA pool against human genes, 40 nM
Duration: 96 h from transfection to read-out
Treatment: vemurafenib 300 nM (about IC25), added 48 h after transfection, for 48 h; comparison arm got DMSO vehicle only
Detection: 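Ratios to non-targeting siRNA for cell gain, counted as DAPI nuclei after minus before drug and averaged over two replicates, and for absorbance-read medium lactate per cell; both binned into fold-change classes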
Reading the numbers: cell gain with vemurafenib: higher = more cell gain than with non-targeting siRNA; lactate per cell with vemurafenib: higher = more lactate made per cell
Hit rule: 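Enhancement is called by pairing each knock-down's vehicle-arm and drug-arm fold-change classes for viability or glycolysis; which class combinations qualify is not given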
Meaning of the calls: active = enhances vemurafenib effect; inactive = no enhancement seen

What did the screen give for SLC2A12?
cell gain with vemurafenib: 0.54; lactate per cell with vemurafenib: 0.38; Outcome: inactive

What is on record for LSM14B (LSM family member 14B)?
cell gain with vemurafenib: -0.07; lactate per cell with vemurafenib: 1.19; Outcome: inactive

What is on record for METTL5 (methyltransferase 5, N6-adenosine)?
cell gain with vemurafenib: 0.78; lactate per cell with vemurafenib: 0.91; Outcome: inactive

Which result is listed for OTOL1 (otolin 1)?
cell gain with vemurafenib: 0.41; lactate per cell with vemurafenib: 0.52; Outcome: inactive

What did the screen give for KCNQ4 (potassium voltage-gated channel subfamily Q member 4)?
cell gain with vemurafenib: 0.29; lactate per cell with vemurafenib: 1.75; Outcome: inactive

For MDGA2 (MAM domain containing glycosylphosphatidylinositol anchor 2), what was measured?
cell gain with vemurafenib: 0.49; lactate per cell with vemurafenib: 0.8; Outcome: inactive

How did the screen score RSPRY1 (ring finger and SPRY domain containing 1)?
cell gain with vemurafenib: 1.02; lactate per cell with vemurafenib: 0.65; Outcome: inactive

For PCDHGC5 (protocadherin gamma subfamily C, 5), how do the results read?
cell gain with vemurafenib: 0.16; lactate per cell with vemurafenib: 1.48; Outcome: active

With LGALS9B (galectin 9B), what was measured?
cell gain with vemurafenib: 0.3; lactate per cell with vemurafenib: 0.66; Outcome: inactive

With OR4A5 (olfactory receptor family 4 subfamily A member 5), how do the results read?
cell gain with vemurafenib: 0.6; lactate per cell with vemurafenib: 0.77; Outcome: inactive

What is on record for AGXT2 (alanine--glyoxylate aminotransferase 2)?
cell gain with vemurafenib: 0.35; lactate per cell with vemurafenib: 0.26; Outcome: inactive

For SPTBN1 (spectrin beta, non-erythrocytic 1), how do the results read?
cell gain with vemurafenib: 0.43; lactate per cell with vemurafenib: 1.58; Outcome: inactive

With SNX1 (sorting nexin 1), what was measured?
cell gain with vemurafenib: 0.43; lactate per cell with vemurafenib: 1.07; Outcome: inactive

How did the screen score GOLGA8EP (golgin A8 family member E, pseudogene)?
cell gain with vemurafenib: 0.93; lactate per cell with vemurafenib: 0.71; Outcome: inactive

With CSTA (cystatin A), how do the results read?
cell gain with vemurafenib: -0.21; lactate per cell with vemurafenib: 0.45; Outcome: inactive

Records listed so far whose target name starts with M or m:
METTL5 (methyltransferase 5, N6-adenosine): cell gain with vemurafenib = 0.78; lactate per cell with vemurafenib = 0.91; Outcome = inactive
MDGA2 (MAM domain containing glycosylphosphatidylinositol anchor 2): cell gain with vemurafenib = 0.49; lactate per cell with vemurafenib = 0.8; Outcome = inactive

Continued.
How did the screen score RMND5B (required for meiotic nuclear division 5 homolog B)?
cell gain with vemurafenib: 0.69; lactate per cell with vemurafenib: 1.14; Outcome: inactive

How did the screen score DISP1 (dispatched RND transporter family member 1)?
cell gain with vemurafenib: 0.13; lactate per cell with vemurafenib: 1.4; Outcome: inactive

What did the screen give for UBE2G1 (ubiquitin conjugating enzyme E2 G1)?
cell gain with vemurafenib: 0.62; lactate per cell with vemurafenib: 0.59; Outcome: inactive

What is on record for LEF1 (lymphoid enhancer binding factor 1)?
cell gain with vemurafenib: 0.29; lactate per cell with vemurafenib: 1.23; Outcome: inactive

What did the screen give for NLRP6 (NLR family pyrin domain containing 6)?
cell gain with vemurafenib: 0.46; lactate per cell with vemurafenib: 1.46; Outcome: inactive

With TNNC1 (troponin C1, slow skeletal and cardiac type), what was measured?
cell gain with vemurafenib: 0.5; lactate per cell with vemurafenib: 0.87; Outcome: inactive

For EML4 (EMAP like 4), what was measured?
cell gain with vemurafenib: 0.43; lactate per cell with vemurafenib: 0.97; Outcome: inactive

What is on record for SPANXN3 (SPANX family member N3)?
cell gain with vemurafenib: 0.55; lactate per cell with vemurafenib: 0.56; Outcome: inactive

What did the screen give for UMOD (uromodulin)?
cell gain with vemurafenib: 0.33; lactate per cell with vemurafenib: 0.82; Outcome: inactive

What did the screen give for DCAF4L1 (DDB1 and CUL4 associated factor 4 like 1)?
cell gain with vemurafenib: 0.88; lactate per cell with vemurafenib: 0.82; Outcome: inactive

With TMEM143 (transmembrane protein 143), what does the deposit list?
cell gain with vemurafenib: 0.65; lactate per cell with vemurafenib: 1.12; Outcome: inactive

With PPDPFL, what was measured?
cell gain with vemurafenib: 1.02; lactate per cell with vemurafenib: 0.5; Outcome: inactive
